Inconclusive results, whose numbers are uncertain, are shown with a selection of clear calls. Potencies beside an inconclusive call are fits to weak or partial responses and may not hold up. Activity calls are given as the source filed them. Calls follow the shape of the full dose curve.
experiment: VSV-G qHTS counterscreen for inhibitors of MERS-S pseudo-typed particle cell entry; conditions: VSV-G pseudotyped particle cell entry, luciferase counterscreen; series mostly up to 57.1 µM

SMILES | Potency
c1ccc2c(c1)Sc1ccccc1N2CC1CN2CCC1CC2 (centres undefined) | inconclusive: 34.1 µM [inhibitor, single point]
CCC(C)(C)C(=O)O[C@H]1C[C@@H](C)C=C2C=C[C@H](C)[C@H](CC[C@@H]3C[C@@H](O)CC(=O)O3)[C@H]21 | inconclusive: 42.9 µM [inhibitor, single point]
CN1CCC[C@@H]1CCO[C@](C)(c1ccccc1)c1ccc(Cl)cc1 | inconclusive: 10.8 µM [inhibitor, full curve]
CCCCCCNC(=O)n1cc(F)c(=O)[nH]c1=O | inconclusive: 10.8 µM [inhibitor, full curve]
CC[C@@H]([C@H](C)O)n1ncn(-c2ccc(N3CCN(c4ccc(OC[C@@H]5CO[C@@](Cn6cncn6)(c6ccc(F)cc6F)C5)cc4)CC3)cc2)c1=O | active: 6.81 µM
CC[C@@]1(O)C(=O)OCc2c1cc1n(c2=O)Cc2cc3c([N+](=O)[O-])cccc3nc2-1 | inconclusive: 0.0078 µM [inhibitor, full curve, poor fit]
Cc1cc(C(C#N)c2ccc(Cl)cc2)c(Cl)cc1NC(=O)c1cc(I)cc(I)c1O (centres undefined) | inconclusive: 30.4 µM [inhibitor, partial curve, poor fit]
CN1CCC(=C2c3ccccc3CCc3sccc32)CC1 | inconclusive: 27.1 µM [inhibitor, partial curve]
CC[C@H](C)C(=O)O[C@H]1C[C@@H](C)C=C2C=C[C@H](C)[C@H](CC[C@@H]3C[C@@H](O)CC(=O)O3)[C@H]21 | inactive

2 entries from above, with each value named.
c1ccc2c(c1)Sc1ccccc1N2CC1CN2CCC1CC2 (centres undefined)
  Potency: inconclusive: 34.1 µM [inhibitor, single point]
Cc1cc(C(C#N)c2ccc(Cl)cc2)c(Cl)cc1NC(=O)c1cc(I)cc(I)c1O (centres undefined)
  Potency: inconclusive: 30.4 µM [inhibitor, partial curve, poor fit]

Reference: PubChem BioAssay AID1494156 (National Center for Advancing Translational Sciences (NCATS), 2020)
